PubChem BioAssay AID743121, NCATS – 2013
In all, the deposit lists about 26,000 reagents; this is an unselected part. 167 of them (0.63%) count as active. 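Calls are per gene from RSA p-values that are not deposited; an individual active-marked siRNA can sensitise only weakly.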 Unmarked entries are inactive. Reagents against one gene are numbered here. Further read-outs or replicates are left out here. No sequences are given here.

Screen: 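Knock-downs that sensitise breast cancer cells to camptothecin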 (primary screen)
Cell system: MDA-MB-231 cells, a human breast cancer line
Reagent: single siRNA against human genes, 20 nM siRNA (0.8 pmol per well)
Duration: 120 h (drug added 48 h after transfection, read 72 h later)
Conditions: camptothecin 20 nM (about EC30) for 72 h; vehicle 0.1% DMSO in parallel plates
Detection: 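CellTiter-Glo ATP signal, scaled to control siRNA as percent viability; sensitisation given as log2 of untreated divided by camptothecin-treated viability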
Reading the numbers: log2 vehicle/camptothecin viability: higher = stronger sensitisation to camptothecin; viability with camptothecin: higher = more viable cells
Units: viability with camptothecin in % of control
Call rule: 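Each gene scored by redundant siRNA activity (RSA) over its individual siRNA ratios; a gene is called active at p < 0.001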

Against CDK15 #1, the values are log2 vehicle/camptothecin viability 0.715; viability with camptothecin 51.4.
For CDK15 #2, the values are log2 vehicle/camptothecin viability 1.11; viability with camptothecin 14.1.
CDK15 #3 gave log2 vehicle/camptothecin viability -0.0913; viability with camptothecin 89.7.
After knock-down of CDK15 #4, the screen gave log2 vehicle/camptothecin viability -0.565; viability with camptothecin 39.4.
With knock-down of PF4 #1, the screen gave log2 vehicle/camptothecin viability 0.282; viability with camptothecin 101.
PF4 #2 showed log2 vehicle/camptothecin viability 0.526; viability with camptothecin 41.7.
CTSV #1 showed log2 vehicle/camptothecin viability -0.254; viability with camptothecin 119.
CTSV #2 gave log2 vehicle/camptothecin viability -0.247; viability with camptothecin 58.
After knock-down of CTSV #3 the results were log2 vehicle/camptothecin viability 0.645; viability with camptothecin 30.4.
Knock-down of CTSV #4 came out at: log2 vehicle/camptothecin viability -0.544; viability with camptothecin 48.9.
With knock-down of SPHK2 #1 the results were log2 vehicle/camptothecin viability -0.188; viability with camptothecin 54.4.
For SPHK2 #2, the entry reads log2 vehicle/camptothecin viability 0.0304; viability with camptothecin 55.9.
Knock-down of SPHK2 #3 came out at: log2 vehicle/camptothecin viability 0.723; viability with camptothecin 27.3.
After knock-down of SPHK2 #4 the results were log2 vehicle/camptothecin viability -0.581; viability with camptothecin 85.4.

2 consecutive entries already listed:
PF4 #2 | log2 vehicle/camptothecin viability: 0.526; viability with camptothecin: 41.7
CTSV #1 | log2 vehicle/camptothecin viability: -0.254; viability with camptothecin: 119
